No constants are given. Whether binding was seen depends on the method and setting. Binding seen in cells or lysates may run through a third protein. These calls come from enrichment with a bait or labelling near it, and not all partners need be listed. Tags and fused reporters may be left off the sequences shown.
T1: UDP-N-acetylglucosamine-peptide N-acetylglucosaminyltransferase (mouse (endogenous in MEFs)) (UniProt Q8CGY8)
T1 sequence: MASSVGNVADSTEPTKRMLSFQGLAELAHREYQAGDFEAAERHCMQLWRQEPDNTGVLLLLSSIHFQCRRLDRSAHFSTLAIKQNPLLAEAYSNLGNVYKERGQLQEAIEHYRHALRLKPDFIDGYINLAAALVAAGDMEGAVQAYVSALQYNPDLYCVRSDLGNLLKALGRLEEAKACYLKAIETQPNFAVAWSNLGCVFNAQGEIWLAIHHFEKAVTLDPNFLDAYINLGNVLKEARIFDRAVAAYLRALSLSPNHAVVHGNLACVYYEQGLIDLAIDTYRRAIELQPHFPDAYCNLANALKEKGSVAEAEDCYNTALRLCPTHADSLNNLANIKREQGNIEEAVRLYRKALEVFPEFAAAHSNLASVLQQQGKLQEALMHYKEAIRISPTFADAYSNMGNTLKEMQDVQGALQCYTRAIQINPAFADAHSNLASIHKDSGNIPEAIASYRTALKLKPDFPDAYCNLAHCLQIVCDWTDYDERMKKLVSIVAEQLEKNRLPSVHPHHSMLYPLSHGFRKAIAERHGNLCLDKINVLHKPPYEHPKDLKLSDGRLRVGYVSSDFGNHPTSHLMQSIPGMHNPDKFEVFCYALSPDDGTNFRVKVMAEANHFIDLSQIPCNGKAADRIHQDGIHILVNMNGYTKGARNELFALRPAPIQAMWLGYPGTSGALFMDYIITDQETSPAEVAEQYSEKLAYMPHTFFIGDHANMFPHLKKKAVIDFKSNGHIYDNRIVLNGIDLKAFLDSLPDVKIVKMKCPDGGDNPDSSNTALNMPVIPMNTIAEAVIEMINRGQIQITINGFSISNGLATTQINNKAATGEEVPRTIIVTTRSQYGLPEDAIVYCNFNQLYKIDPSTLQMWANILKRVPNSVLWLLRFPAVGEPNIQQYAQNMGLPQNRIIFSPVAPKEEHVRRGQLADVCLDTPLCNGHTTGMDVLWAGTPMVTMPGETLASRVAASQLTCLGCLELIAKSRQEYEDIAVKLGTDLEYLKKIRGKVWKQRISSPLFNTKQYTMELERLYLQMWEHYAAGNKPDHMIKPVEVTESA

B1: Pold1 (protein, UniProt P52431 1-1105)
chain: MDCKRRQGPGPGVPPKRARGHLWDEDEPSPSQFEANLALLEEIEAENRLQEAEEELQLPPEGTVGGQFSTADIDPRWRRPTLRALDPSTEPLIFQQLEIDHYVGSAPPLPEGPLPSRNSVPILRAFGVTDEGFSVCCHIQGFAPYFYTPAPPGFGAEHLSELQQELNAAISRDQRGGKELSGPAVLAIELCSRESMFGYHGHGPSPFLRITLALPRLMAPARRLLEQGVRVPGLGTPSFAPYEANVDFEIRFMVDADIVGCNWLELPAGKYVRRAEKKATLCQLEVDVLWSDVISHPPEGQWQRIAPLRVLSFDIECAGRKGIFPEPERDPVIQICSLGLRWGEPEPFLRLALTLRPCAPILGAKVQSYEREEDLLQAWADFILAMDPDVITGYNIQNFDLPYLISRAQALKVDRFPFLGRVTGLRSNIRDSSFQSRQVGRRDSKVISMVGRVQMDMLQVLLREHKLRSYTLNAVSFHFLGEQKEDVQHSIITDLQNGNEQTRRRLAVYCLKDAFLPLRLLERLMVLVNNVEMARVTGVPLGYLLTRGQQVKVVSQLLRQAMRQGLLMPVVKTEGSEDYTGATVIEPLKGYYDVPIATLDFSSLYPSIMMAHNLCYTTLLRPGAAQKLGLKPDEFIKTPTGDEFVKSSVRKGLLPQILENLLSARKRAKAELAQETDPLRRQVLDGRQLALKVSANSVYGFTGAQVGKLPCLEISQSVTGFGRQMIEKTKQLVESKYTVENGYDANAKVVYGDTDSVMCRFGVSSVAEAMSLGREAANWVSSHFPSPIRLEFEKVYFPYLLISKKRYAGLLFSSRSDAHDKMDCKGLEAVRRDNCPLVANLVTSSLRRILVDRDPDGAVAHAKDVISDLLCNRIDISQLVITKELTRAAADYAGKQAHVELAERMRKRDPGSAPSLGDRVPYVIIGAAKGVAAYMKSEDPLFVLEHSLPIDTQYYLEQQLAKPLLRIFEPILGEGRAESVLLRGDHTRCKTVLTSKVGGLLAFTKRRNCCIGCRSVIDHQGAVCKFCQPRESELYQKEVSHLNALEERFSRLWTQCQRCQGSLHEDVICTSRDCPIFYMRKKVRKDLEDQERLLQRFGPPGPEAW
B2: Ppfibp1 (protein, UniProt Q8C8U0 1-969)
chain: MMSDASDMLAAALEQMDGIIAGSKALEYSNGIFDCQSPTSPFMGSLRALHLVEDLRGLLEMMETDEKEGLRCQIPDSTAEVLIEWLQNQMTNGHLPGNGDVYQERLARLENDKESLVLQVSVLTDQVEAQGEKIRDLEFCLEEHREKLNATEEMLQQELLSRTSLETQKLELMAEISNLKLKLTAVEKDRLDYEDRFRDTEGLIQEINDLRLKVNEMDGERLQYEKKLKSTKDELASLKEQLEEKECEVKRLQERLVCKAKGEGIEVLDRDIEVQKMKKAVESLMAANEEKERKIEDLRQCLSRYRKMQDPAVLAQGQDSECEGLFHSSSISTLLDAQGFSDLERSTSSTPGMGSPSRDLLHTSAPEEFHTSVLQASIPSLLPPSVDVDTCEKPKLPTKPETSFEEGDGRAILGAAAEVSLSDGVSTSSLQKSSSLGNLKKEASDGTDKAPTDSRTFGTLPPKVPGHEASVDDNPFGTRKARSSFGRGFFKIKSGKRTASAPNLAETEKETAEHLNLAGTSRSKGSQGTSPFPMSPPSPDSRKKSRGIMRLFGKLRRSQSTTFNPDDMSEPEFKRGGTRATAGPRLGWSRDLGQSNSDLDMPFAKWTKEQVCSWLAEQGLGSYLSSGKHWIISGQTLLQASQQDLEKELGIKHSLHRKKLQLALQALGSEEETNYGKLDFNWVTRWLDDIGLPQYKTQFDEGRVDGRMLHYMTVDDLLSLKVVSVLHHLSIKRAIQVLRINNFEPNCLRRRPSDENSITPSEVQQWTNHRVMEWLRSVDLAEYAPNLRGSGVHGGLMVLEPRFNVETMAQLLNIPPNKTLLRRHLATHFNLLIGAEAQHQKRDAMELPDYVLLTATAKVKPKKLTFSNFGNLRKKKHEDGEEYVCPMELGQASGSSQKGFRPGLDMRLYEEDDLDRLEQMEDSEGTVRQIGAFSEGINNLTHMLKEDDMFKDFAARSPSASITDEDSNV
B3: Kdm2b (protein, UniProt Q6P1G2 1-1309)
chain: MEAEKDSGRRLRAIDRQRYDENEDLSDVEEIVSVRGFSLEEKLRSQLYQGDFVHAMEGKDFNYEYVQREALRVPLVFRDKDGLGIKMPDPDFTVRDVKLLVGSRRLVDVMDVNTQKGTEMSMSQFVRYYETPEAQRDKLYNVISLEFSHTKLEHLVKRPTVVDLVDWVDNMWPQHLKEKQTEATNALAEMKYPKVKKYCLMSVKGCFTDFHIDFGGTSVWYHVFRGGKIFWLIPPTLHNLALYEEWVLSGKQSDIFLGDRVERCQRIELKQGYTFFIPSGWIHAVYTPVDSLVFGGNILHSFNVPMQLRIYEIEDRTRVQPKFRYPFYYEMCWYVLERYVYCVTQRSYLTQEYQRELMLIDAPRKTSVDGFSSDSWLDMEEESCEQQPQEEEEEEEDKEEEGDGADKTPKPPTDDPTSPTSTPPEDQDSTGKKPKAPAIRFLKRTLSNESEESVKSTSMPTDDPKTPTGSPATEVSTKWTHLTEFELKGLKALVEKLESLPENKKCVPEGIEDPQALLEGVKNVLKEHVDDDPTLAITGVPVVSWPKKTAKNRVVGRPKGKLGPASAVKLAANRTTAGARRRRTRCRKCEACLRTECGECHFCKDMKKFGGPGRMKQSCIMRQCIAPVLPHTAVCLVCGEAGKEDTVEEEEGKFNLMLMECSICNEIIHPGCLKIKESEGVVNDELPNCWECPKCNHAGKTGKQKRGPGFKYASNLPGSLLKEQKMNRDNKEGQEPAKRRSECEEAPRRRSDEHPKKVPADGILRRKSDDVHLRRKRKYEKPQELSGRKRASSLQTSPGSSSHLSPRPPLGSSLSPWWRSSLTYFQQQLKPGKEDKLFRKKRRSWKNAEDRLSLANKPLRRFKQEPEDDLPEAPPKTRESDQSRSSSPTAGPSTEGAEGPEEKKKVKMRRKRRLVNKELSKELSKELNHEIQKTESTLAHESQQPIKSEPESENDEPKRPLSHCERPHRFSKGLNGTPRELRHSLGPGLRSPPRVMSRPPPSASPPKCIQMERHVIRPPPISPPPDSLPLDDGAAHVMHREVWMAVFSYLSHRDLCVCMRVCRTWNRWCCDKRLWTRIDLNRCKSITPLMLSGIIRRQPVSLDLSWTNISKKQLSWLINRLPGLRDLVLSGCSWIAVSALCSSSCPLLRTLDVQWVEGLKDAQMRDLLSPPTDNRPGQMDNRSKLRNIVELRLAGLDITDVSLRLIIRHMPLLSKLQLSYCNHINDQSINLLTAVGTTTRDSLTEVNLSDCNKVTDLCLSFFKRCGNICHIDLRYCKQVTKEGCEQFIAEMSVSVQFGQVEEKLLQKLS
B4: Hdlbp (protein, UniProt Q8VDJ3 1-1268)
chain: MSSVAVLTQESFAEHRSGLVPQQIKVATLNSEEENDPPTYKDAFPPLPEKAACLESAQEPAGAWSNKIRPIKASVITQVFHVPLEERKYKDMNQFGEGEQAKICLEIMQRTGAHLELSLAKDQGLSIMVSGKLDAVMKARKDIVARLQTQASATVPIPKEHHRFVIGKNGEKLQDLELKTATKIQIPRPDDPSNQIKITGTKEGIEKARHEVLLISAEQDKRAVERLEVEKAFHPFIAGPYNRLVGEIMQETGTRINIPPPSVNRTEIVFTGEKEQLAQAVARIKKIYEEKKKKTTTIAVEVKKSQHKYVIGPKGNSLQEILERTGVSVEIPPSDSISETVILRGEPEKLGQALTEVYAKANSFTVSSVSAPSWLHRFIIGKKGQNLAKITQQMPKVHIEFTEGEDKITLEGPTEDVNVAQEQIEGMVKDLINRMDYVEINIDHKFHRHLIGKSGANINRIKDQYKVSVRIPPDSEKSNLIRIEGDPQGVQQAKRELLELASRMENERTKDLIIEQRFHRTIIGQKGERIREIRDKFPEVIINFPDPAQKSDIVQLRGPKNEVEKCTKYMQKMVADLVENSYSISVPIFKQFHKNIIGKGGANIKKIREESNTKIDLPAENSNSETIIITGKRANCEAARSRILSIQKDLANIAEVEVSIPAKLHNSLIGTKGRLIRSIMEECGGVHIHFPVEGSGSDTVVIRGPSSDVEKAKKQLLHLAEEKQTKSFTVDIRAKPEYHKFLIGKGGGKIRKVRDSTGARIIFPAAEDKDQDLITIIGKEDAVREAQKELEALIQNLENVVEDYMLVDPKHHRHFVIRRGQVLREIAEEYGGVMVSFPRSGTQSDKVTLKGAKDCVEAAKKRIQEIIEDLEAQVTVECAIPQKFHRSVMGPKGSRIQQITRDYNVQIKFPDREENPVHSVEPSIQENGDEAGEGREAKETDPGSPRRCDIIIISGRKEKCEAAKEALEALVPVTIEVEVPFDLHRYIIGQKGSGIRKMMDEFEVNIHVPAPELQSDTIAITGLAANLDRAKAGLLDRVKELQAEQEDRALRSFKLSVTVDPKYHPKIIGRKGAVITQIRLEHEVNIQFPDKDDGNQPQDQITITGYEKNTEAARDAILKIVGELEQMVSEDVPLDHRVHARIIGARGKAIRKIMDEFKVDIRFPQSGAPDPNCVTVTGLPENVEEAIDHILNLEEEYLADVVDSEALQVYMKPPAHEESRAPSKGFVVRDAPWTSNSSEKAPDMSSSEEFPSFGAQVAPKTLPWGPKR

target: T1, UDP-N-acetylglucosamine-peptide N-acetylglucosaminyltransferase (mouse (endogenous in MEFs)); assay: affinity purification with mass spectrometry; endogenous OGT immunoprecipitated (antibody AL24, protein G magnetic beads, TCL buffer: 50 mM Tris HCl, 150 mM NaCl, pH 7.5, 1% NP-40, 2 mM EDTA) from a 1:1:1 mix of SILAC-labelled lysates of WT, H2O2-treated (2.5 mM, 1.5 h) and OGT-null MEFs, precleared with rabbit IgG; in-gel trypsin digestion, LC-MS/MS; interactor if log2 WT or H2O2/null >=1 in 2 or more replicates

binding, binds:
B1, B2, B3, B4

Reference: paper PMC8079276
